Laboratory results: PubChem BioAssay
Values joined by “and” are separate entries in the source; they are usually repeats but may differ in a detail not shown here. Identical values can stand only once. The list shows a part of the results. Shown are side measurements of this screen, not its main read-out; they come without a call. For some assays here: Compounds called inactive in the main read-out are mostly missing here.

test: PubChem AID 1586; settings: yeast two-hybrid polyglutamine protein interaction, reporter readout; measured here: averaged growth delta OD

SMILES | signal change (36 h minus 0 h)
CN1CCc2c(c3ccccc3n2Cc2ccccc2)C1 | 0.0872
CCCCC[C@H](CC(=O)NO)C(=O)N[C@H](C(=O)N1CCC[C@H]1CO)C(C)C | 0.493
CCCNCC(O)COc1ccccc1C(=O)CCc1ccccc1 (stereo unspecified) | 0.15
CCCCCCCCCCCCCCCCCC(=O)OC(CC(=O)O)C[N+](C)(C)C (stereo unspecified) | 0.377
CC(=O)CCC1C2=NC(=C\C3=NC(=C(/C)C4=NC(C)(C5[N-]/C(=C\2C)C(C)(CCC(=O)NCC(C)OP(=O)(O)O[C@@H]2[C@@H](CO)OC(n6cnc7cc(C)c(C)cc76)[C@@H]2O)C5CC(N)=O)C(C)(CC(N)=O)C4CCC(N)=O)/C(C)(CC(N)=O)C3CCC(N)=O)/C1(C)C.[CH2-][C@H]1OC(n2cnc3c(N)ncnc32)[C@H](O)[C@@H]1O.[Co+2] (stereo partly specified) | 0.176
CC(=O)[C@@]1(O)CCC2C3C=C(Cl)C4=CC(=O)[C@@H]5CC5[C@]4(C)C3CC[C@@]21C (stereo partly specified) | 0.176
CC(C)(C)c1ccc(C(O)CCCN2CCC(C(O)(c3ccccc3)c3ccccc3)CC2)cc1 (stereo unspecified) | 0.603
CC(=O)N[C@@H]1[C@@H](C(O)[C@H](O)CO)O[C@](O)(C(=O)O)C[C@@H]1O (stereo partly specified) | 0.222
Oc1c(Br)cc(Br)c2cccnc12 | -0.0144
CC(CN(C)C)CN1c2ccccc2Sc2ccccc21 (stereo unspecified) | 0.161
CC(C(=O)O)c1cccc(C(=O)c2ccccc2)c1 (stereo unspecified) | 0.0785
CC(=O)Nc1ccc(OCC(O)CNC(C)C)cc1 (stereo unspecified) | 0.583
CN[C@@H]1[C@H](OC2[C@H](O[C@H]3[C@H](O)[C@@H](O)[C@H](N=C(N)N)[C@@H](O)[C@@H]3N=C(N)N)O[C@@H](C)[C@]2(O)C=O)O[C@@H](CO)[C@H](O)[C@H]1O (stereo partly specified) | 0.187
CCN(CC)CCCC(C)Nc1ccnc2cc(Cl)ccc12 (stereo unspecified) | 0.22
CCn1cc(C(=O)O)c(=O)c2cnc(N3CCCC3)nc21 | 0.0988
NC(N)=NS(=O)(=O)c1ccc(N)cc1 | 0.179
Cc1ccccc1OCC(O)CO (stereo unspecified) | 0.0469
Cc1cc(C2CCCCC2)n(O)c(=O)c1 | 0.0068
CCCCNc1cc(C(=O)O)cc(S(N)(=O)=O)c1Oc1ccccc1 | 0.0208
CCc1cc(C(N)=S)ccn1 | 0.0364
CC(=O)N1CCN(c2ccc(OCC3CO[C@](Cn4ccnc4)(c4ccc(Cl)cc4Cl)O3)cc2)CC1 (stereo partly specified) | -0.0441
C[C@]12C=CC(=O)C=C1CCC1C2[C@@H](O)C[C@@]2(C)C1CC[C@]2(O)C(=O)CO (stereo partly specified) | 0.446
CNC(C)[C@@H]1CC[C@@H](N)[C@@H](OC2[C@@H](N)C[C@@H](N)[C@H](OC3OC[C@](C)(O)[C@H](NC)[C@H]3O)[C@H]2O)O1 (stereo partly specified) | 0.0718

test: enhancers of SMN2 over SMN1 splicing, cell-based, SMN2/SMN1 luciferase reporters (AID 1598); settings: SMN2 vs SMN1 luciferase splicing reporter cells, at 10 µM; SMN1 luciferase ratio: measured here: SMN1 luciferase reporter average; SMN2 luciferase ratio: measured here: SMN2 luciferase reporter average, stronger effect = higher value

SMILES | SMN1 luciferase ratio | SMN2 luciferase ratio
C=CC[C@@H]1/C=C(\C)C[C@H](C)C[C@H](OC)[C@H]2O[C@@](O)(C(=O)C(=O)N3CCCC[C@H]3C(=O)O[C@H](/C(C)=C/[C@@H]3CC[C@@H](O)[C@H](OC)C3)[C@H](C)[C@@H](O)CC1=O)[C@H](C)C[C@@H]2OC | 1.04 | 1.09
CC(C[N+](C)(C)C)OC(N)=O (stereo unspecified) | 0.95 | 1.02
OCCN1CCN(CCCN2c3ccccc3Sc3ccc(Cl)cc32)CC1 | 0.94 | 0.97
NCCSSCCN | 0.91 | 0.8
CCCCCCc1ccc(O)cc1O | 0.9 | 0.97
Nc1ccn(C2O[C@H](CO)[C@@H](O)[C@@H]2O)c(=O)n1 (stereo partly specified) | 0.49 | 0.54
NC[C@H]1O[C@H](O[C@H]2[C@H](O)[C@@H](O[C@H]3O[C@H](CO)[C@@H](O)[C@H](N)[C@H]3O)[C@H](N)C[C@@H]2N)[C@H](O)[C@@H](O)[C@@H]1O | 0.8 | 0.92
C#C[C@]1(O)CCC2C3CCC4=Cc5oncc5C[C@]4(C)C3CC[C@@]21C (stereo partly specified) | 0.93 | 0.87
CC(C)=CCC1=C(O)c2ccccc2C(=O)C1=O | 0.77 | 0.74
CCCCC1C(=O)N(c2ccccc2)N(c2ccc(O)cc2)C1=O (stereo unspecified) | 0.96 | 1.07
COc1ccc(CCN(C)CCCC(C#N)(c2ccc(OC)c(OC)c2)C(C)C)cc1OC (stereo unspecified) | 0.91 | 0.82
Cc1nnc(SCC2=C(C(=O)O)N3C(=O)[C@@H](NC(=O)Cn4cnnn4)[C@H]3SC2)s1 | 0.9 | 0.93
CSc1ccc2c(c1)N(CCC1CCCCN1C)c1ccccc1S2 (stereo unspecified) | 0.8 | 0.98
Fc1ccc(C(c2ccccc2)(c2ccccc2F)n2ccnc2)cc1 (stereo unspecified) | 0.84 and 0.91 | 0.88 and 0.92
CN(C)C(=O)Oc1ccc[n+](C)c1 | 0.88 | 0.88
C[C@@H]1O[C@@H](O[C@H]2[C@H](Oc3cc(O)c4c(c3)O[C@H](c3ccc(O)cc3)CC4=O)O[C@H](CO)[C@@H](O)[C@@H]2O)[C@H](O)[C@H](O)[C@H]1O | 0.97 | 0.88
CN1CCc2c(c3ccccc3n2Cc2ccccc2)C1 | 0.85 | 1
CCCCC[C@H](CC(=O)NO)C(=O)N[C@H](C(=O)N1CCC[C@H]1CO)C(C)C | 1.08 | 0.94
CCCNCC(O)COc1ccccc1C(=O)CCc1ccccc1 (stereo unspecified) | 0.92 | 0.9
CCCCCCCCCCCCCCCCCC(=O)OC(CC(=O)O)C[N+](C)(C)C (stereo unspecified) | 0.82 | 0.87

SMILES | SMN1 luciferase ratio | SMN2 luciferase ratio
CC(=O)CCC1C2=NC(=C\C3=NC(=C(/C)C4=NC(C)(C5[N-]/C(=C\2C)C(C)(CCC(=O)NCC(C)OP(=O)(O)O[C@@H]2[C@@H](CO)OC(n6cnc7cc(C)c(C)cc76)[C@@H]2O)C5CC(N)=O)C(C)(CC(N)=O)C4CCC(N)=O)/C(C)(CC(N)=O)C3CCC(N)=O)/C1(C)C.[CH2-][C@H]1OC(n2cnc3c(N)ncnc32)[C@H](O)[C@@H]1O.[Co+2] (stereo partly specified) | 0.97 | 1.07
CC(=O)[C@@]1(O)CCC2C3C=C(Cl)C4=CC(=O)[C@@H]5CC5[C@]4(C)C3CC[C@@]21C (stereo partly specified) | 0.96 | 1.01
CC(C)(C)c1ccc(C(O)CCCN2CCC(C(O)(c3ccccc3)c3ccccc3)CC2)cc1 (stereo unspecified) | 0.93 | 0.84
CC(=O)N[C@@H]1[C@@H](C(O)[C@H](O)CO)O[C@](O)(C(=O)O)C[C@@H]1O (stereo partly specified) | 1.04 | 1.19
Oc1c(Br)cc(Br)c2cccnc12 | 0.85 | 0.97
CC(CN(C)C)CN1c2ccccc2Sc2ccccc21 (stereo unspecified) | 0.86 | 0.84
CC(C(=O)O)c1cccc(C(=O)c2ccccc2)c1 (stereo unspecified) | 0.87 | 0.85
CC(=O)Nc1ccc(OCC(O)CNC(C)C)cc1 (stereo unspecified) | 0.91 | 0.94
CN[C@@H]1[C@H](OC2[C@H](O[C@H]3[C@H](O)[C@@H](O)[C@H](N=C(N)N)[C@@H](O)[C@@H]3N=C(N)N)O[C@@H](C)[C@]2(O)C=O)O[C@@H](CO)[C@H](O)[C@H]1O (stereo partly specified) | 0.82 | 0.84
CCN(CC)CCCC(C)Nc1ccnc2cc(Cl)ccc12 (stereo unspecified) | 0.91 | 0.79
CCn1cc(C(=O)O)c(=O)c2cnc(N3CCCC3)nc21 | 0.88 | 0.86
NC(N)=NS(=O)(=O)c1ccc(N)cc1 | 0.96 | 0.81
Cc1ccccc1OCC(O)CO (stereo unspecified) | 0.86 | 0.81
Cc1cc(C2CCCCC2)n(O)c(=O)c1 | 0.24 | 0.28
CCCCNc1cc(C(=O)O)cc(S(N)(=O)=O)c1Oc1ccccc1 | 0.88 | 0.81
CCc1cc(C(N)=S)ccn1 | 0.92 | 0.93
CC(=O)N1CCN(c2ccc(OCC3CO[C@](Cn4ccnc4)(c4ccc(Cl)cc4Cl)O3)cc2)CC1 (stereo partly specified) | 1 | 0.93
C[C@]12C=CC(=O)C=C1CCC1C2[C@@H](O)C[C@@]2(C)C1CC[C@]2(O)C(=O)CO (stereo partly specified) | 0.95 | 0.94
CNC(C)[C@@H]1CC[C@@H](N)[C@@H](OC2[C@@H](N)C[C@@H](N)[C@H](OC3OC[C@](C)(O)[C@H](NC)[C@H]3O)[C@H]2O)O1 (stereo partly specified) | 0.89 | 0.91
